Article PMC13031558

Protein sequences, listed by entry. Tags and fused reporters are not part of them. Residues count along the entry.
UniProt Q9BRS8, 70-300: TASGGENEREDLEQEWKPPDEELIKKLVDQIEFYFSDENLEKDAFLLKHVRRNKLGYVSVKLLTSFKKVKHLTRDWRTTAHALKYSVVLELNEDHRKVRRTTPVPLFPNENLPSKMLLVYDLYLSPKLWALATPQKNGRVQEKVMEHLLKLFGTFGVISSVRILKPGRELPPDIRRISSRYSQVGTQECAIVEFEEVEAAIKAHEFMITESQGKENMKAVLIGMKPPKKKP

Target: LARP6 La-module (Homo sapiens) (UniProt Q9BRS8)
Experiment: NMR
Settings: RNA titration; recombinant protein; residues 70-300; protein details: His tag cleaved by TEV

## CUAAAUACAACACUGAUACUAGAUU [CTNNA1 P1 (SAXS/NMR)]
  binding result: binds

For at least one entry, the source does not settle the construct or the ends of the probe. At least one verdict rests on a figure or table, not on a statement of the authors.
